Taken from: PubChem BioAssay AID504774 (Drosophila RNAi Screening Center, 2011)
Test: 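Fly genes whose loss alters survival after alkylation damage to DNA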 (primary screen). System: Drosophila Kc167 cells. Reagent: long dsRNA against Drosophila genes, about 0.25 µg dsRNA per well. Duration: about 6 days: 3 days knock-down, then 3 days with or without MMS. Challenge: methyl methanesulphonate 0.004% (w/v) for 3 days after knock-down. Measurement: 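Viability in wells given MMS, read as ATP luminescence, normalised by quantiles plate by plate and averaged across replicates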. Reading the numbers: mean viability with MMS and viability with MMS: higher = more surviving cells after MMS.
The screen tested about 23,000 reagents; this is a random part of those that have a named target and a result. 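Values are quantile-normalised luminescence on an arbitrary scale; higher means more cells surviving MMS.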 Names joined by + are all predicted targets of the reagent.

| Gene | PubChem SID | mean viability with MMS | viability with MMS, replicate 1 | viability with MMS, replicate 2 |
| --- | --- | --- | --- | --- |
| idc (identity crisis) | SID104195472 | 3.43e6 | 3.93e6 | 3.85e6 |
| E(spl)m5-HLH (Enhancer of split m5, helix-loop-helix) | SID104196487 | 3.57e6 | 4.06e6 | 4.04e6 |
| Polr3E (RNA polymerase III subunit E) | SID104191672 | 3.24e6 | 3.64e6 | 3.70e6 |
| Start1 | SID104184176 | 3.53e6 | 3.85e6 | 4.12e6 |
| nudE | SID104188792 | 3.62e6 | 4.14e6 | 4.03e6 |
| nudE | SID104190754 | 3.42e6 | 3.75e6 | 3.98e6 |
| OtopLa (Otopetrin-like a) | SID104197579 | 3.88e6 | 4.39e6 | 4.51e6 |
| OtopLa (Otopetrin-like a) | SID104197925 | 3.72e6 | 4.19e6 | 4.25e6 |
| OtopLa (Otopetrin-like a) | SID104202583 | 3.48e6 | 4.07e6 | 3.86e6 |
| ImpE3 (Ecdysone-inducible gene E3) | SID104196508 | 3.46e6 | 4.03e6 | 3.83e6 |
| Amph (Amphiphysin) | SID104187370 | 3.52e6 | 3.95e6 | 4.01e6 |
| Strip (Striatin interacting protein) | SID104187986 | 3.48e6 | 3.98e6 | 3.91e6 |
| CG1316 | SID104188096 | 4.32e6 | 5.20e6 | 5.20e6 |
| papi | SID104180485 | 3.34e6 | 3.69e6 | 3.75e6 |
| CG18631 (retired record) | SID104186571 | 3.54e6 | 3.99e6 | 4.03e6 |
| AstA-R1 (Allatostatin A receptor 1) | SID104197070 | 3.53e6 | 4.04e6 | 3.97e6 |
| AstA-R1 (Allatostatin A receptor 1) | SID104197519 | 3.63e6 | 3.93e6 | 4.29e6 |
| PAN3 (Poly(A) specific ribonuclease subunit PAN3) | SID104187982 | 3.55e6 | 4.07e6 | 3.97e6 |
| axed (axundead) | SID104188625 | 3.64e6 | 4.05e6 | 4.16e6 |
| axed (axundead) | SID104190774 | 3.51e6 | 3.99e6 | 3.98e6 |
| CG3526 | SID104197032 | 3.52e6 | 3.97e6 | 4.02e6 |
| CG3526 | SID104198428 | 3.52e6 | 4.07e6 | 3.93e6 |
| Fer1HCH (Ferritin 1 heavy chain homologue) | SID104196463 | 3.59e6 | 4.04e6 | 4.10e6 |
| Cdk2 (Cyclin-dependent kinase 2) | SID104196713 | 3.44e6 | 3.85e6 | 3.95e6 |
| Smg5 (Smg5 nonsense mediated mRNA decay factor) | SID104182916 | 3.37e6 | 3.60e6 | 3.96e6 |
| CG8319 | SID104196199 | 3.43e6 | 3.93e6 | 3.89e6 |

6 consecutive entries from above, quoted:
| Gene | PubChem SID | mean viability with MMS | viability with MMS, replicate 1 | viability with MMS, replicate 2 |
| --- | --- | --- | --- | --- |
| idc (identity crisis) | SID104195472 | 3.43e6 | 3.93e6 | 3.85e6 |
| E(spl)m5-HLH (Enhancer of split m5, helix-loop-helix) | SID104196487 | 3.57e6 | 4.06e6 | 4.04e6 |
| Polr3E (RNA polymerase III subunit E) | SID104191672 | 3.24e6 | 3.64e6 | 3.70e6 |
| Start1 | SID104184176 | 3.53e6 | 3.85e6 | 4.12e6 |
| nudE | SID104188792 | 3.62e6 | 4.14e6 | 4.03e6 |
| nudE | SID104190754 | 3.42e6 | 3.75e6 | 3.98e6 |

Further reagents follow.
| Gene | PubChem SID | mean viability with MMS | viability with MMS, replicate 1 | viability with MMS, replicate 2 |
| --- | --- | --- | --- | --- |
| ana (anachronism) | SID104187371 | 3.42e6 | 3.87e6 | 3.83e6 |
| MetRS-m (Methionyl-tRNA synthetase, mitochondrial) | SID104196235 | 3.60e6 | 4.13e6 | 4.08e6 |
| MetRS-m (Methionyl-tRNA synthetase, mitochondrial) | SID104196307 | 3.36e6 | 3.87e6 | 3.73e6 |
| CG31288 | SID104194459 | 3.53e6 | 4.04e6 | 3.94e6 |
| CG6220 | SID104186761 | 3.74e6 | 4.14e6 | 4.15e6 |
| scro (scarecrow) | SID104196891 | 3.33e6 | 3.86e6 | 3.67e6 |
| scro (scarecrow) | SID104196894 | 3.56e6 | 4.01e6 | 4.07e6 |
| Tsp42En (Tetraspanin 42En) | SID104185977 | 3.59e6 | 4.05e6 | 4.05e6 |
| Mrp4 (Multidrug resistance protein 4) | SID104194723 | 3.82e6 | 4.18e6 | 4.30e6 |
| CG14502 | SID104186265 | 3.53e6 | 4.01e6 | 3.99e6 |
| Prx4 (Peroxiredoxin 4) | SID104188460 | 3.47e6 | 3.95e6 | 3.93e6 |
| Bacc (Bacchus) | SID104180527 | 3.48e6 | 3.89e6 | 4.00e6 |
| CG33292 (retired record) | SID104202280 | 3.65e6 | 4.08e6 | 4.13e6 |
| CG8565 | SID104199904 | 3.59e6 | 4.19e6 | 3.93e6 |
| Pus7 (Pseudouridine synthase 7) | SID104190495 | 3.76e6 | 4.26e6 | 4.23e6 |
| CG34454 | SID104187656 | 3.54e6 | 4.19e6 | 3.83e6 |
| CG6415 | SID104182746 | 3.49e6 | 4.01e6 | 3.89e6 |
| CG1271 | SID104188082 | 3.50e6 | 3.93e6 | 4.01e6 |
| Nmdmc (NAD-dependent methylenetetrahydrofolate dehydrogenase) | SID104196552 | 3.61e6 | 4.14e6 | 4.07e6 |
| CG14238 | SID104194524 | 3.41e6 | 3.93e6 | 3.74e6 |
| slmb (supernumerary limbs) | SID104196848 | 3.17e6 | 3.67e6 | 3.69e6 |
| CG43127 | SID104188831 | 3.81e6 | 4.10e6 | 4.34e6 |
| CG34268 | SID104187666 | 3.58e6 | 4.00e6 | 4.13e6 |
| CG13625 | SID104194419 | 3.28e6 | 3.73e6 | 3.76e6 |
| GluProRS (Glutamyl-prolyl-tRNA synthetase) | SID104193887 | 3.47e6 | 3.88e6 | 3.98e6 |
| Edg78E (Ecdysone-dependent gene 78E) | SID104191655 | 3.49e6 | 4.02e6 | 3.86e6 |
| Hsp70Bb + Hsp70Ba + Hsp70Bc + 1 more | SID104201039 | 3.28e6 | 3.77e6 | 3.77e6 |
| Hsp70Bb + Hsp70Ba + Hsp70Bc + 1 more | SID104201040 | 3.24e6 | 3.72e6 | 3.76e6 |
| CG30350 | SID104187482 | 3.63e6 | 4.13e6 | 4.03e6 |
| Nplp1 (Neuropeptide-like precursor 1) | SID104184162 | 3.51e6 | 4.18e6 | 3.85e6 |
| Ypel (Yippee-like) | SID104197788 | 3.26e6 | 4.01e6 | 3.95e6 |
| Obp44a (Odorant-binding protein 44a) | SID104186630 | 3.63e6 | 4.06e6 | 4.10e6 |
| Mur82C (Mucin related 82C) | SID104191803 | 3.22e6 | 3.83e6 | 3.75e6 |
| Mur82C (Mucin related 82C) | SID104192004 | 3.64e6 | 4.01e6 | 4.02e6 |
| WDR79 (WD repeat domain 79) | SID104182951 | 3.38e6 | 3.85e6 | 3.70e6 |
| FMRFa (FMRFamide) | SID104187220 | 3.53e6 | 4.08e6 | 3.93e6 |
| CG1701 | SID104186433 | 3.55e6 | 4.09e6 | 3.96e6 |
| Trs23 (TRAPP subunit 23) | SID104182982 | 3.49e6 | 3.88e6 | 4.05e6 |
| gzl (godzilla E3 ubiquitin protein ligase) | SID104192309 | 3.52e6 | 3.95e6 | 4.03e6 |
| CG16956 | SID104182336 | 3.57e6 | 4.12e6 | 3.97e6 |
| lov (jim lovell) | SID104184071 | 3.52e6 | 3.86e6 | 4.12e6 |
| lov (jim lovell) | SID104184457 | 3.69e6 | 3.74e6 | 3.92e6 |
